{"sequences": {"note": "Protein sequences, listed by entry. Tags and fused reporters are not part of them. Lines headed by an entry give the natural chain unless they say otherwise; changes in a name come on top.", "UniProt P42858": "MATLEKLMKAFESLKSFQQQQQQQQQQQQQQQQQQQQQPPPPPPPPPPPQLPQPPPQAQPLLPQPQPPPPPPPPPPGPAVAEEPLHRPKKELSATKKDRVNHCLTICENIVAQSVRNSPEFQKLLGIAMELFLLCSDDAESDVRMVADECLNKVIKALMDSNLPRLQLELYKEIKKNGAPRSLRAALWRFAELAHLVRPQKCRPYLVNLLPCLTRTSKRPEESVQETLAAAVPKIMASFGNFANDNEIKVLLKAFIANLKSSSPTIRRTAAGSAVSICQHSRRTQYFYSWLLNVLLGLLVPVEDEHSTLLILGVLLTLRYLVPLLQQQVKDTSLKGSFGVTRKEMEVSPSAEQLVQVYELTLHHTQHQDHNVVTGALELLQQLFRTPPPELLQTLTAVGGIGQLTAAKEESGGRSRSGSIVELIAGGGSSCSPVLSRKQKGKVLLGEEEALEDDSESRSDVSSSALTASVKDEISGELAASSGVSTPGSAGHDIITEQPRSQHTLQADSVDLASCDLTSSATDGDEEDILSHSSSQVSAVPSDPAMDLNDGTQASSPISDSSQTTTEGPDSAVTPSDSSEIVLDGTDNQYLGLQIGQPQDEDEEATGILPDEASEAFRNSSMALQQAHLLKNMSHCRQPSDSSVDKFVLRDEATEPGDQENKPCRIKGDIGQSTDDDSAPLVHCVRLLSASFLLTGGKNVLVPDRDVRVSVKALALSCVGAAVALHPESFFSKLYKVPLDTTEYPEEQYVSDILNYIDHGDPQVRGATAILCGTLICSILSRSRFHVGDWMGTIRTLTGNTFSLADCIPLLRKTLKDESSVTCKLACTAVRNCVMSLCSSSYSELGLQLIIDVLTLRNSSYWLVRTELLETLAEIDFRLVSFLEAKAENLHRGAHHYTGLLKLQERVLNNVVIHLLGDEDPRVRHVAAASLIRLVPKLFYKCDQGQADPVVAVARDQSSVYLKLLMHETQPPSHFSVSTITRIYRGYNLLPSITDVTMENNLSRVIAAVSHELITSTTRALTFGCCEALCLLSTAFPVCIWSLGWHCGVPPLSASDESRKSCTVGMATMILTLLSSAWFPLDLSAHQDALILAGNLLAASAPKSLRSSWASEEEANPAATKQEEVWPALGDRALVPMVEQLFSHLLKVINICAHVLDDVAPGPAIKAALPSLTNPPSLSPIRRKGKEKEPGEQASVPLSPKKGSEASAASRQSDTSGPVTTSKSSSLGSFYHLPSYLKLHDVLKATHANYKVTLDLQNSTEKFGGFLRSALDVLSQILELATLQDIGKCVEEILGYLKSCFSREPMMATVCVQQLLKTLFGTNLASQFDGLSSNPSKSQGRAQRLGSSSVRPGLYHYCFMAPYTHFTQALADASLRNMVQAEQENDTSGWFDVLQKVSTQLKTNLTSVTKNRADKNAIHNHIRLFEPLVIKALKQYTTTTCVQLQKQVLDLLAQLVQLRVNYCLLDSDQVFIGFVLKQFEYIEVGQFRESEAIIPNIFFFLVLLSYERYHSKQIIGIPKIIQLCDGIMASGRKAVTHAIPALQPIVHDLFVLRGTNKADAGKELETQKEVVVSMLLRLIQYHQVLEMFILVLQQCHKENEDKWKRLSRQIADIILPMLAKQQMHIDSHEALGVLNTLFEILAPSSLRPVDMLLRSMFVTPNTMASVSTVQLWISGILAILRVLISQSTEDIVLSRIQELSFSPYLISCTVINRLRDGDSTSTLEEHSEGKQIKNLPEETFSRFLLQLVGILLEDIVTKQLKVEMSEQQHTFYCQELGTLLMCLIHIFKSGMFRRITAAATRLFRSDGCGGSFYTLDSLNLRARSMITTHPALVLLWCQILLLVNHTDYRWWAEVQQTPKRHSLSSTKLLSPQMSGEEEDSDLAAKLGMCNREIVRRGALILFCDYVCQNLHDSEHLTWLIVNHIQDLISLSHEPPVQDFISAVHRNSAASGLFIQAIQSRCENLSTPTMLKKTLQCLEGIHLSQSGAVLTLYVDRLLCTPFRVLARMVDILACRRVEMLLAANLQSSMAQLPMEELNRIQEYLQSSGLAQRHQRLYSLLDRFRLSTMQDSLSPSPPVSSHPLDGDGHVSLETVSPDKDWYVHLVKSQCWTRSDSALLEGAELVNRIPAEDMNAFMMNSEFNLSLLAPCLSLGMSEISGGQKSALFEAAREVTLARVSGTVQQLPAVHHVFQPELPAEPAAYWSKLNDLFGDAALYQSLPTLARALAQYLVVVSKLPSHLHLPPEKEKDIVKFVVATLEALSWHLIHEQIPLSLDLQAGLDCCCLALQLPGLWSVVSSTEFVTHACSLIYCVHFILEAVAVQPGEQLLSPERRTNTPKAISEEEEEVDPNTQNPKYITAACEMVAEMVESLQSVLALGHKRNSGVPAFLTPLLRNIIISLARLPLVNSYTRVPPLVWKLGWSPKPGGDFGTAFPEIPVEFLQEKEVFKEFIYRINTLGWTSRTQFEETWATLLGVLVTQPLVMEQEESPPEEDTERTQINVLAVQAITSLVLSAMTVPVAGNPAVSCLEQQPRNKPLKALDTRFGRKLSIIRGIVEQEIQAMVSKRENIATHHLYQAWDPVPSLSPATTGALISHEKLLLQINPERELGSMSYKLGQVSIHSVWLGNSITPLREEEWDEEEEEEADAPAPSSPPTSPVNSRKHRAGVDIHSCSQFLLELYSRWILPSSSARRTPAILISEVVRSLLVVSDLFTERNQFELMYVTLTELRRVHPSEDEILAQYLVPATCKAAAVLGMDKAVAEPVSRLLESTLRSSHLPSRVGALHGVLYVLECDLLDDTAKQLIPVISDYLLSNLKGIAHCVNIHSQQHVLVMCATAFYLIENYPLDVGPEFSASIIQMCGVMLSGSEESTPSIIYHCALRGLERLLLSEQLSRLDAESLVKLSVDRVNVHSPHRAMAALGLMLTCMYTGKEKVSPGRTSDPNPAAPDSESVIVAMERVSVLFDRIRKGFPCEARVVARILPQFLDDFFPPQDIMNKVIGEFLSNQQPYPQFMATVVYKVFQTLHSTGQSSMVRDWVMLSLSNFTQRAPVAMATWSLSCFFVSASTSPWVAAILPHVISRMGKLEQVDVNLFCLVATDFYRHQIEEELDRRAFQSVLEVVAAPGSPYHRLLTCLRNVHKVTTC"}, "source": "paper PMC11742450", "about": "“Engineering a membrane protein chaperone to ameliorate the proteotoxicity of mutant huntingtin” (Nature Communications, 2025)", "key": {"[1]": {"target": "T1, His6-hsPEX19-FV^Bpa (human) (UniProt P40855)", "T1 sequence (chain, p-benzoyl-L-phenylalanine (Bpa) in place of residue F255)": "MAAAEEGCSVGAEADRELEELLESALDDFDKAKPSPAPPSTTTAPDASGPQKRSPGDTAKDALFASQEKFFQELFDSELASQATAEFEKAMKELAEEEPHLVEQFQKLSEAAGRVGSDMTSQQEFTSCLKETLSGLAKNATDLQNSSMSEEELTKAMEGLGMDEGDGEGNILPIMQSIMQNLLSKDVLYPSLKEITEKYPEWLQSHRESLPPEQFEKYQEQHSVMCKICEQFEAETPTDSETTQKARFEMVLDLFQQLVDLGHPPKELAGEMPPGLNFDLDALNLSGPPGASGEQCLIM", "experiment": "cross-linking; Bpa photo-cross-linking of hsPEX19^Bpa (Bpa at F255) with MBP-WT, N17-MBP and N17-MBP variants; both purified"}, "[2]": {"target": "T2, His6-hsPEX19-FI^Bpa (human) (UniProt P40855)", "T2 sequence (chain, p-benzoyl-L-phenylalanine (Bpa) in place of residue F255)": "T1 sequence (chain, p-benzoyl-L-phenylalanine (Bpa) in place of residue F255) with V259I", "experiment": "cross-linking; Bpa photo-cross-linking of hsPEX19^Bpa (Bpa at F255) with MBP-WT, N17-MBP and N17-MBP variants; both purified"}}, "note": "Positions count from the first letter of the chain named. Results are given in words; binding and its absence hold for the method and conditions named. Some entries that bind do so weakly or less than the wild type. Where a sequence is shown, tags or fusion partners need not be part of it."}
{"substance": "N17-MBP-His6 (from UniProt P42858 1-17) (domain or fragment)", "values": [{"measurement": "binding", "setting": "[1]", "result": "binds"}, {"measurement": "binding", "setting": "[2]", "result": "binds"}]}
